The target of one test is Myc-CHIP (UniProt Q9UNE7). Nature of the test: pull-down from co-transfected cells: HA-GSK3β pulled down with HA probe, immunoblot with anti-Myc antibody (FIG. 4i).
The target in test [1] is recombinant CHIP protein (GST-CHIP) (UniProt Q9UNE7). The test can be described thus: in vitro GST pull-down: His-GSK3β incubated with GST-CHIP, pulled down with Sepharose 4B beads, immunoblot against His (FIG. 4h). For orientation: In western blotting, separated proteins are transferred to a membrane and probed.

The chains behind the UniProt entries cited, without tags or fusion partners.
UniProt Q9UNE7: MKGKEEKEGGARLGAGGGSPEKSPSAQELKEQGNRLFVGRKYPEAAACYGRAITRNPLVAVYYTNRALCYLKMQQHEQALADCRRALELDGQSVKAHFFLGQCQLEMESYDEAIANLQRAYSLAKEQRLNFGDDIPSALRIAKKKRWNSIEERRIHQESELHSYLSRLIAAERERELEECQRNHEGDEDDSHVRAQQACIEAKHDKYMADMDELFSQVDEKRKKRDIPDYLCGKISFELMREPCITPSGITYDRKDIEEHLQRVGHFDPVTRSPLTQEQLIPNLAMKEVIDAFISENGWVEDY
UniProt P49841: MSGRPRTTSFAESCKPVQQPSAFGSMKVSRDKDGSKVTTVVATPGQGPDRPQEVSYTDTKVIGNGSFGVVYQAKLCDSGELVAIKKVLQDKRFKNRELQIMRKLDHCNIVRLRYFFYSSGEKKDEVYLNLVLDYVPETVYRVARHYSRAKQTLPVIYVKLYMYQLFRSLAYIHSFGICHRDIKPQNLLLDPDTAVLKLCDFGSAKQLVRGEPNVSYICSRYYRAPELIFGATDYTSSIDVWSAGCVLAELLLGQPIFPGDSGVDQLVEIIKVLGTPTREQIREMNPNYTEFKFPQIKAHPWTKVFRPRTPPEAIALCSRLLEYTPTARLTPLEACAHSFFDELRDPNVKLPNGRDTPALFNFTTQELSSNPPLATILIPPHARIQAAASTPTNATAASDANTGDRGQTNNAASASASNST

These are yes or no findings as the source states them, for the method shown. In cells and extracts the contact can be indirect. Some results given as binding are weak or reduced against the parent protein; the word gives no strength.

With “HA-GSK3β (from UniProt P49841 1-420) (enzyme)”, the binding result with Myc-CHIP is “binds”.

“recombinant GSK3β protein (His-GSK3β) (from UniProt P49841 1-420) (enzyme)”: the binding result in test [1] was “binds”.

(Values after patent US20150065561A1 (GEORGIA STATE UNIVERSITY RESEARCH FOUNDATION, published 2015).)
